Measurements reported in PubChem BioAssay AID594 (National Center for Advancing Translational Sciences (NCATS), 2007).
Among all 59,000 compounds or so, about 30 (0.05%) were called active. Inconclusive means that the source gave no clear call. Such entries were picked first, then a sample of the others. Rule as the data show it: active = max dye-equivalent concentration above about 11 nM; inconclusive = between about 1.1 nM and that limit; inactive = weaker than that.

Assay: qHTS Assay for Spectroscopic Profiling in Rhodamine Spectral Region
Details: Rhodamine-region fluorescence, 547/598 nm, Tris buffer; active compounds read high
Text: NIH Molecular Libraries Screening Centers Network [MLSCN] NIH Chemical Genomics Center [NCGC] […] Occasionally, the artifactual effect may originate from the compound#s own spectral or other biophysical properties which generally tend to track its assay concentration. Pre-screening/profiling the library with respect to the compounds# spectral properties should help one exclude false positives early on. While the most informative fluorescent profiling data set is obtained by performing a full excitation and emission scan of each well by using a monochromator-based plate reader, such an approach is practical only on a very limited scale as scanning each well requires long time. An alternative approach, applied here, is to perform plate reader scans using selected excitation and emission wavelength pairs to generate a multidimensional relational database that correlates compound concentration and the respective relative fluorescence intensity at a given wavelength set. A standard curve of rhodamine present on each plate as six-point concentration series, was used to compute a normalized fluorescence response, termed dye-equivalent concentration, for each compound at each concentration.
NCGC Assay Protocol Summary: Buffer: 100 mM Tris buffer, pH 8.0 Dye standard plate: The wells in columns 1 through 4 of a Kalypsys polypropylene 1536-well compound plate were filled with standard solutions of fluorophore corresponding to the spectral region of interest. Solutions of rhodamine were placed in the following wells: E1, F1: 3 mM, E2, F2: 300 uM, E3, F3: 30 uM, E4, F4: zero (DMSO), G1, H1: 3 uM, G2, H2: […], G3, H3: 300 nM, G4, H4: zero (DMSO). Assay Steps: Six uL of buffer were dispensed to 1536-well Greiner black plates. Compounds and dye standards (23 nL) were transferred via Kalypsys PinTool. The plates were incubated for 15 min at room temperature, and then read on ViewLux (Perkin-Elmer) High-throughput CCD imager using 547 nm and 598 nm excitation and emission filter set. Keywords: NIH Roadmap, MLSCN, MLI, MLSMR, qHTS, NCGC, Rhodamine , Fluorescent Profiling.

SMILES | max dye-equivalent concentration
CN1C[C@@H](CS(=O)(=O)N(C)C)C[C@H]2c3cccc4c3c(cn4C)C[C@@H]21 | inactive
CCN(CC)C(=O)N[C@@H]1C[C@H]2c3cccc4[nH]cc(c34)C[C@@H]2N(C)C1 | inactive
CCN(CC)c1ccc(N=Cc2c(O)n(CCC3=CCCCC3)c(=O)[nH]c2=O)cc1 | inactive
CN1CCN(c2ccc([N+](=O)[O-])c3[nH]o[n+](=O)c23)CC1 | inconclusive: 1.3 nM
Cc1cccn2c(=O)c3c(nc12)N1CCC(Cc2ccccc2)CC1C1(C3)C(=O)N(C)C(=O)N(C)C1=O (configuration not stated) | inconclusive: 2.8 nM
CC1=NCCc2c1[nH]c1cc(O)ccc21 | inconclusive: 1.5 nM
CCOC(=O)c1ccc(NC(=O)c2c(O)[nH]c(=O)[nH]c2=O)cc1 | inconclusive: 1.1 nM
